The source of these data is publication PMC11239671, “GolpHCat (TMEM87A), a unique voltage-dependent cation channel in Golgi apparatus, contributes to Golgi-pH maintenance and hippocampus-dependent memory” (Nature Communications, 2024).

No constants are given. Whether binding was seen depends on the method and setting.

The target of the assay is human TMEM87A (hTMEM87A), renamed Golgi-pH-regulating cation channel (GolpHCat) (human) (UniProt Q8NBN3). The experiment in a line: cryo-EM structure; single-particle cryo-EM of purified hTMEM87A in detergent (LMNG/CHS), 50 mM Tris pH 9.0, 250 mM NaCl, ~0.8 mg/ml; overall resolution 3.1 Å; both purified.

B1: human TMEM87A (hTMEM87A), renamed Golgi-pH-regulating cation channel (GolpHCat) (protein, UniProt Q8NBN3-1 22-555)
chain: SPLSFFSAGPATVAAADRSKWHIPIPSGKNYFSFGKILFRNTTIFLKFDGEPCDLSLNITWYLKSADCYNEIYNFKAEEVELYLEKLKEKRGLSGKYQTSSKLFQNCSELFKTQTFSGDFMHRLPLLGEKQEAKENGTNLTFIGDKTAMHEPLQTWQDAPYIFIVHIGISSSKESSKENSLSNLFTMTVEVKGPYEYLTLEDYPLMIFFMVMCIVYVLFGVLWLAWSACYWRDLLRIQFWIGAVIFLGMLEKAVFYAEFQNIRYKGESVQGALILAELLSAVKRSLARTLVIIVSLGYGIVKPRLGVTLHKVVVAGALYLLFSGMEGVLRVTGAQTDLASLAFIPLAFLDTALCWWIFISLTQTMKLLKLRRNIVKLSLYRHFTNTLILAVAASIVFIIWTTMKFRIVTCQSDWRELWVDDAIWRLLFSMILFVIMVLWRPSANNQRFAFSPLSEEEEEDEQKEPMLKESFEGMKMRSTKQEPNGNSKVNKAQEDDLKWVEENVPSSVTDVALPALLDSDEERMITHFERSKME
modifications: N-linked oligosaccharides at N62, N79 and N127
For the molecule B1, the binding entry is listed as “no binding”.
